Results published in US20240400585A1, “TRITYL-NITROXIDE MULTIRADICALS AS POLARIZING AGENTS FOR DYNMAIC NUCLEAR POLARIZATION” (Commissariat a l'Energie Atomique et aux Energies …, priority 2021, published 2024).

Assay: MAS-DNP NMR performance of polarizing agents (DNP enhancement, buildup time, sensitivity)
Conditions: 10 mM in glycerol-d8/D2O/H2O (60:30:10), partially protonated aqueous matrix; 9.4, 8 kHz MAS, ~110 K

CC1(C)Sc2c(c(C(c3c4c(c(C(=O)[O-])c5c3SC(C)(C)S5)SC(C)(C)S4)c3c4c(c(C(=O)N5CCN(C(=O)C6=CC(C)(C)N(O)C6(C)C)CC5)c5c3SC(C)(C)S5)SC(C)(C)S4)c3c(c2C(=O)[O-])SC(C)(C)S3)S1.[Na+].[Na+] [PyrroTriPol]
returned sensitivity relative to TEMTriPol-1: 1.6 times
